This is one part of the list. Residues, ends and D or L forms follow the SMILES beside them. *: point of attachment. Cbz = O=C(OCc1ccccc1)*
Key:
Assay in all cases: log2 fold change, soluble protein after heating vs DMSO (PISA); higher = thermal stabilisation; K562 cells, 10 uM, 30 min; active = over 0.2 and 3.5 SD of the protein, either way, in both replicates (recomputed)
IRAK-1-4 Inhibitor I = compound: C1COCCN1CCN2C3=CC=CC=C3N=C2NC(=O)C4=CC(=CC=C4)[N+](=O)[O-] [IRAK-1-4 Inhibitor I]
In short: (§1)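 K562 cells at 2×10^6 cells/mL were given 10 μM compound for 30 min. Aliquots then went through 3 min of heating across 48°C-58°C, were pooled, and were extracted in PBS with 0.5% NP-40 at 4°C, and the supernatant after 21,000xg for 90 min was quantified by TMTpro 16plex LC-MS/MS with channel sums equalised. Thermal stability relative to control samples, from duplicates, is given as log2 fold change.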

Chains of the proteins cited; added tags and fusions are not shown. Lines headed by an entry give the natural chain unless they say otherwise; changes in a name come on top.
UniProt Q15653: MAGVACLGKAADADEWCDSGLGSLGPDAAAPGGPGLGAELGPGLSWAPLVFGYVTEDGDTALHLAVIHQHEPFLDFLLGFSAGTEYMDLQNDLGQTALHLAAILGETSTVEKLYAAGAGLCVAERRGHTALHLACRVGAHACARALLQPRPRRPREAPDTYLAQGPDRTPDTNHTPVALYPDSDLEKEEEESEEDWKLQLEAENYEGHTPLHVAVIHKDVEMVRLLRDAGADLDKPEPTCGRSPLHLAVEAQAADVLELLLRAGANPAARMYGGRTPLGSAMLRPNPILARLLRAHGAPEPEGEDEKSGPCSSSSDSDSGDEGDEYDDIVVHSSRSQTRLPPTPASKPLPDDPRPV
UniProt Q9H9Q4: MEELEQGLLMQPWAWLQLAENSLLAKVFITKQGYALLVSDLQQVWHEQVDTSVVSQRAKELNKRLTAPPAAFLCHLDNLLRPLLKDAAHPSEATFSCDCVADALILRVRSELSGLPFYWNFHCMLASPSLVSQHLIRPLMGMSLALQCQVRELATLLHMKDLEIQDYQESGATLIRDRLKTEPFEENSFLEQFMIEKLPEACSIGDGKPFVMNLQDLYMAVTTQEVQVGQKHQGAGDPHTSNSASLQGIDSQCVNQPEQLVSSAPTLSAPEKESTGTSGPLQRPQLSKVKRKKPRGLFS
UniProt Q9BYT8, whole entry, looked up: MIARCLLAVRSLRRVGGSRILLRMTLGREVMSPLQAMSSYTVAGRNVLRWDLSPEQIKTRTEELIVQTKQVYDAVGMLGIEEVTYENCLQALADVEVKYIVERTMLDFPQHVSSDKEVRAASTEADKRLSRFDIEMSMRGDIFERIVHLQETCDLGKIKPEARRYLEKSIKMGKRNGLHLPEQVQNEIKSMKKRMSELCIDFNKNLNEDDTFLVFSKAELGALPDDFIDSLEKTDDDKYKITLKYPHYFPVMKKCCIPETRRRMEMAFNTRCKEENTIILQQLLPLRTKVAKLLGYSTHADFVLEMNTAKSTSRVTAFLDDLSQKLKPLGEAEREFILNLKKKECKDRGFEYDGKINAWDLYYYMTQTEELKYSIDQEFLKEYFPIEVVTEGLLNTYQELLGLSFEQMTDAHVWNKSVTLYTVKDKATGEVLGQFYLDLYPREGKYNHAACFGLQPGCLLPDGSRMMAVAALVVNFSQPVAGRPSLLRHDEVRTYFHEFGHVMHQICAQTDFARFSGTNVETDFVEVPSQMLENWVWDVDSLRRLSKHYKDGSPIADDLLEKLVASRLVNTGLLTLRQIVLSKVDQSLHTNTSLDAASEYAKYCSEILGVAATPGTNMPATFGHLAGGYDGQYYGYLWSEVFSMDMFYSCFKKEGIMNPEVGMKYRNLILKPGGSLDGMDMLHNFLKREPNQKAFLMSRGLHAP
UniProt P16083: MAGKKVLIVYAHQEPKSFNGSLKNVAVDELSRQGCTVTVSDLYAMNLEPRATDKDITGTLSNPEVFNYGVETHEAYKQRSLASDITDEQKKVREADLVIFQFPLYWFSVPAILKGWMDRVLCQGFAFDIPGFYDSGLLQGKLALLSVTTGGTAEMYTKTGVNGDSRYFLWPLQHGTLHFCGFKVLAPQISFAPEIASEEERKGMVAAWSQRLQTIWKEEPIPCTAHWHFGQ
UniProt P46459: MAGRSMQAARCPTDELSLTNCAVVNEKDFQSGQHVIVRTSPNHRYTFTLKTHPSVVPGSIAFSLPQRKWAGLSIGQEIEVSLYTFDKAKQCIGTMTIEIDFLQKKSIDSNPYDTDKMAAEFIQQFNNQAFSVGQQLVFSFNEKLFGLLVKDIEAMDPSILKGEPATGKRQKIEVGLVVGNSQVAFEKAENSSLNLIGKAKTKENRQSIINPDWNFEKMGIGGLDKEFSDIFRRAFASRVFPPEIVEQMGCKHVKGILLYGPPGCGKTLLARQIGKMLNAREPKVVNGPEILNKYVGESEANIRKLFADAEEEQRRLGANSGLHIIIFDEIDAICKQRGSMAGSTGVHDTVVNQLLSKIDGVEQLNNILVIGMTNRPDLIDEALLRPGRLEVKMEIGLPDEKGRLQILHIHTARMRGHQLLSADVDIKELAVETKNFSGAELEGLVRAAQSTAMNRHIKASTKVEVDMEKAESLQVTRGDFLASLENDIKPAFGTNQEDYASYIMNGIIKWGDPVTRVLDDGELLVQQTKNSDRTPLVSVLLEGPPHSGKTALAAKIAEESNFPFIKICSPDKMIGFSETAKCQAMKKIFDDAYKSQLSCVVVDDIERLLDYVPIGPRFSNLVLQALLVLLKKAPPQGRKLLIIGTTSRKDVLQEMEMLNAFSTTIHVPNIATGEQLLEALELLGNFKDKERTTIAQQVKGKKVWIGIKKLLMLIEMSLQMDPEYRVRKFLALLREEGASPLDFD
UniProt Q9BYG3: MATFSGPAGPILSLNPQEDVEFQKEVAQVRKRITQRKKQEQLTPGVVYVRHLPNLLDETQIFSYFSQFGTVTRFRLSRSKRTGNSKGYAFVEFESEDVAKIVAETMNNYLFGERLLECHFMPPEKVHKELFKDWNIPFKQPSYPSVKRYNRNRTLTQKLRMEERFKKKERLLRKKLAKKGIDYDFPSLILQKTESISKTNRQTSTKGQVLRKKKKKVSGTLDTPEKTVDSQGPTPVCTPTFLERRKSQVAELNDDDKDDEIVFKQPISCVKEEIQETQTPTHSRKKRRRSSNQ
UniProt Q9Y3C1: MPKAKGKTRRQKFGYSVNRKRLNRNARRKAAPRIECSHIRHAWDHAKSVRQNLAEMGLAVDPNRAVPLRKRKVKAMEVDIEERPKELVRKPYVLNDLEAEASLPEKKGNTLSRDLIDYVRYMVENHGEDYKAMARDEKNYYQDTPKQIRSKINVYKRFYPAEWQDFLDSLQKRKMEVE
UniProt Q9BPW8: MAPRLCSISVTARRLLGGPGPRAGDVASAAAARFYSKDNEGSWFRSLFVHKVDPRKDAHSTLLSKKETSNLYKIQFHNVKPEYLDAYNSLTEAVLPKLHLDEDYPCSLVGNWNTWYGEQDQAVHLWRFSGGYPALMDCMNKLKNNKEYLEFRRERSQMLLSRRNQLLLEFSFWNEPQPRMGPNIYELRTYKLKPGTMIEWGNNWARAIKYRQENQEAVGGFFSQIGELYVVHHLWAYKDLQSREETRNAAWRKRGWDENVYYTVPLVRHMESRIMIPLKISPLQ
UniProt Q9UMX5: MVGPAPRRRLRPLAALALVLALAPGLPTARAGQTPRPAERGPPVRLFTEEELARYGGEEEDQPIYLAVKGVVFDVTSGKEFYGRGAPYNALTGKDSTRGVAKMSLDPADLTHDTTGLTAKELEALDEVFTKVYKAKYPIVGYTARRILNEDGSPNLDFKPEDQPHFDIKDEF
UniProt Q9NQR4: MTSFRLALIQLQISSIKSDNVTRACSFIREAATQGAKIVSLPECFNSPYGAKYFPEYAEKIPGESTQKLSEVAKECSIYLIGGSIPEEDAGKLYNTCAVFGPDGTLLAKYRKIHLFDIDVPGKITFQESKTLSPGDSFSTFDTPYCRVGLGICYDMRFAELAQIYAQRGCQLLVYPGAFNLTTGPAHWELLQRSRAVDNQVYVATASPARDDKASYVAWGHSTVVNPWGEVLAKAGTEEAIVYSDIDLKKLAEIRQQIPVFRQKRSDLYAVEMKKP
UniProt Q92686, whole entry, looked up: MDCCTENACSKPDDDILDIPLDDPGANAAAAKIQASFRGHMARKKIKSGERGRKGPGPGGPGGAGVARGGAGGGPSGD
UniProt P08651, whole entry, looked up: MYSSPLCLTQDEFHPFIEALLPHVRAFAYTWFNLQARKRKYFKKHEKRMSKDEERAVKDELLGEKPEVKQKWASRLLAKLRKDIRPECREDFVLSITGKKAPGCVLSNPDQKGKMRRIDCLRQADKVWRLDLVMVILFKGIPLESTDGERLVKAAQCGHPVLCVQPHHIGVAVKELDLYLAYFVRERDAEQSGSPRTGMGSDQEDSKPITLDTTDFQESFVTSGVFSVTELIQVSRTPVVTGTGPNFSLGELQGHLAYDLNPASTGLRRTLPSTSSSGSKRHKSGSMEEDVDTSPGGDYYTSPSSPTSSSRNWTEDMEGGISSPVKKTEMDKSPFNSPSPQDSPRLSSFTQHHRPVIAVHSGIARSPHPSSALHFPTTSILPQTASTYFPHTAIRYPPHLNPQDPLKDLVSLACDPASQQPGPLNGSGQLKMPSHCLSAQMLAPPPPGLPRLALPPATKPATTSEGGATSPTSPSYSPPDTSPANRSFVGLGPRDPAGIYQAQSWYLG
UniProt P10588: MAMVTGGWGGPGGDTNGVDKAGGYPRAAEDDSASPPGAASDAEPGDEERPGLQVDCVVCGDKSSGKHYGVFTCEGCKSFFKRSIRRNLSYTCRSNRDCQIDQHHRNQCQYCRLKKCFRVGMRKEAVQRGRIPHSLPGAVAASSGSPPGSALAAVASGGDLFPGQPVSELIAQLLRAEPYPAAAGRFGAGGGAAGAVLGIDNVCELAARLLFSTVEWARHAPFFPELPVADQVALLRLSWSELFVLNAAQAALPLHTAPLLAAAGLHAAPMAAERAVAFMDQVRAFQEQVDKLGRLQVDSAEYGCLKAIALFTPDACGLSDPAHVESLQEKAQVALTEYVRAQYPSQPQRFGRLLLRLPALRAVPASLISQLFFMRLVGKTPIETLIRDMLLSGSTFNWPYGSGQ
UniProt Q9UGY1: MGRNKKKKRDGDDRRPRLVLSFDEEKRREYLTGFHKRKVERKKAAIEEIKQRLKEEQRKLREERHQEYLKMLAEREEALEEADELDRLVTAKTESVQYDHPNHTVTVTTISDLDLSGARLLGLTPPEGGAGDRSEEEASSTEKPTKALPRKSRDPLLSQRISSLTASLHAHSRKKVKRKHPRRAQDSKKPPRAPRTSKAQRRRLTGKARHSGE
UniProt Q13287: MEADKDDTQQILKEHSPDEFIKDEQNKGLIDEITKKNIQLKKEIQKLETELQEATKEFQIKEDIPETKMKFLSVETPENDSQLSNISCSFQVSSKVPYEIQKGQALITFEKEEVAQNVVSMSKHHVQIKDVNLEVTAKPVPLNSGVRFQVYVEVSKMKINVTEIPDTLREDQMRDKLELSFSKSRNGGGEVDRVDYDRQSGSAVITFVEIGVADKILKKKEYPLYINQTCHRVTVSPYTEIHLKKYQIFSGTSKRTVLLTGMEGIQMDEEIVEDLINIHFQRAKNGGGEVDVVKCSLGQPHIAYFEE
UniProt Q9BXD5: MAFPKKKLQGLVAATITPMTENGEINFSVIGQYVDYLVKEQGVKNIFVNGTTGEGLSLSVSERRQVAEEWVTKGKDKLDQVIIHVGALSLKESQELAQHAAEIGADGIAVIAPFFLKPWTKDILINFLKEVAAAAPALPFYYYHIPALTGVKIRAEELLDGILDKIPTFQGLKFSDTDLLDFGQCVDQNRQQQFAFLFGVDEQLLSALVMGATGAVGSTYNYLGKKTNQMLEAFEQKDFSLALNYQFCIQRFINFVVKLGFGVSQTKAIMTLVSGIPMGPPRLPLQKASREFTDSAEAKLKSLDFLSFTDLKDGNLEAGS
UniProt Q15155: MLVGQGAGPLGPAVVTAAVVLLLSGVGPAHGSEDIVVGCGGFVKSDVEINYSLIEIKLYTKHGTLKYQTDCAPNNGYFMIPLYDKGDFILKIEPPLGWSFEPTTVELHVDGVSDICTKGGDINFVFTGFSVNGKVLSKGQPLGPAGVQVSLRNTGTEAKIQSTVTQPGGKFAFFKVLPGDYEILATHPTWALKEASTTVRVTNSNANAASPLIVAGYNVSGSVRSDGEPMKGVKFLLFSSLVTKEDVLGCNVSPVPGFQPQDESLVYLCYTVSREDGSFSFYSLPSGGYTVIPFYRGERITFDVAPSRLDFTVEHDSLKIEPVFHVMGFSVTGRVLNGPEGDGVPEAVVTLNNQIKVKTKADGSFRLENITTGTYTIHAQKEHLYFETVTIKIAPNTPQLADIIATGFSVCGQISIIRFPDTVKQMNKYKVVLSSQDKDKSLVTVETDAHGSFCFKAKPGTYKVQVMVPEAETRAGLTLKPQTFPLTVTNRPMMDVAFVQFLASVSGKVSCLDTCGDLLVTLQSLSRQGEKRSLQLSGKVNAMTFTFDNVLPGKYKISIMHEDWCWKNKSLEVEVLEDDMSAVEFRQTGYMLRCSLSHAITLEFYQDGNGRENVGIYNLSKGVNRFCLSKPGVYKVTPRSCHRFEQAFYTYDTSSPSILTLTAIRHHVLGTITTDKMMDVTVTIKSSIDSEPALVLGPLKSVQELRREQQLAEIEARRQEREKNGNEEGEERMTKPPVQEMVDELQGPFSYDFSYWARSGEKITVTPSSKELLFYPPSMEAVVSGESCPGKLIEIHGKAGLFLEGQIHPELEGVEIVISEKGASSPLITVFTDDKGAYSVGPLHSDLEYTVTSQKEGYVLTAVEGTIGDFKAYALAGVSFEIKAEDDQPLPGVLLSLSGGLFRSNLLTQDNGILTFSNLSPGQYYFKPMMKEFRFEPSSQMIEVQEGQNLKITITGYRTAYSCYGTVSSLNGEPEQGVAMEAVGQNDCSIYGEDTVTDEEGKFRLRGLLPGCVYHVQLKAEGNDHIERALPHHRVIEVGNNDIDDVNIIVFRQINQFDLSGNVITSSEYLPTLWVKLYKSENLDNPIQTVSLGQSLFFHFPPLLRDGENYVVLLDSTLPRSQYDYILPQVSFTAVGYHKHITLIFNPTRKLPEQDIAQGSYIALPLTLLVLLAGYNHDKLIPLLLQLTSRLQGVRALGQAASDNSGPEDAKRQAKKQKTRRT

ibrutinib = compound: C=CC(=O)N1CCC[C@@H](n2nc(-c3ccc(Oc4ccccc4)cc3)c3c(N)ncnc32)C1 [ibrutinib]
In short: as §1

[1] = compound: CC(=O)c1cnc2ccc(-c3cc(Cl)c(O)c(Cl)c3)nc2c1N[C@H]1CC[C@H](CN(C)C)CC1
In short: as §1

ralimetinib = compound: CC(C)(C)Cn1c(N)nc2ccc(-c3[nH]c(C(C)(C)C)nc3-c3ccc(F)cc3)nc21 [ralimetinib]
In short: as §1

[2] = compound: CC(C)(O)CC(=O)NCCn1ccc2ncnc(Nc3ccc(Oc4cccc(C(F)(F)F)c4)c(Cl)c3)c21
In short: as §1

[3] = compound: CC(C)C1=C2N=C(C=C(N2N=C1)NCC3=CC=CC=C3)NCCCCCCN
In short: as §1

[4] = compound: CC(C)C[C@@H](C=O)NC(=O)[C@H](CC(C)C)NC(=O)[C@H](CC(C)C)NC(=O)OCc1ccccc1
In short: as §1

pinometostat = compound: CC(C)N(C[C@H]1O[C@@H](n2cnc3c(N)ncnc32)[C@H](O)[C@@H]1O)[C@H]1C[C@@H](CCc2nc3cc(C(C)(C)C)ccc3[nH]2)C1 [pinometostat]
In short: as §1

[5] = compound: CC1=C(C(CC(=O)N1)C2=CC=C(C=C2)C(F)(F)F)C(=O)NC3=C(C=C4C(=C3)C=NN4)F
In short: as §1

[6] = compound: CC1=C(C2=C(C=C1)C(=O)C3=CC=CC=C3N2CCCN)C
In short: as §1

Measured: log2 fold change

NFKBIB (UniProt Q15653)
inactive: IRAK-1-4 Inhibitor I -0.05 | ibrutinib -0.059 | [1] 0.077 | ralimetinib 0.002 | [2] -0.046 | [3] -0.022 | [4] -0.026 | pinometostat 0.009 | [5] -0.051 | [6] 0.025

NEMF (UniProt O60524)
inactive: IRAK-1-4 Inhibitor I -0.18 | ibrutinib 0.028 | [1] 0.133 | ralimetinib 0.276 | [2] 0.025 | [3] -0.19 | [4] 0.11 | pinometostat 0.408 | [5] -0.049 | [6] -0.092

NIF3L1 (UniProt Q9GZT8)
inactive: IRAK-1-4 Inhibitor I 0.054 | ibrutinib 0.111 | [1] -0.027 | ralimetinib -0.047 | [2] -0.016 | [3] 0.081 | [4] -0.004 | pinometostat -0.012 | [5] 0.017 | [6] 0.001

NHEJ1 (UniProt Q9H9Q4)
inactive: IRAK-1-4 Inhibitor I 0.043 | ibrutinib -0.064 | [1] -0.021 | ralimetinib 0.017 | [2] -0.016 | [3] 0.007 | [4] 0.014 | pinometostat 0.032 | [5] -0.001 | [6] 0.095

NLN (UniProt Q9BYT8)
inactive: IRAK-1-4 Inhibitor I 0.02 | ibrutinib 0.002 | [1] -0.014 | ralimetinib -0.025 | [2] -0.049 | [3] 0.061 | [4] -0.052 | pinometostat -0.043 | [5] -0.005 | [6] 0.05

NQO2 (UniProt P16083)
inactive: IRAK-1-4 Inhibitor I 0.05 | ibrutinib 0.057 | [1] 0.015 | ralimetinib -0.039 | [2] 0.068 | [3] 0.083 | [4] -0.026 | pinometostat -0.036 | [5] 0.004 | [6] -0.001

NPTN (UniProt Q9Y639)
inactive: IRAK-1-4 Inhibitor I 0.039 | ibrutinib 0.017 | [1] -0.004 | ralimetinib -0.013 | [2] -0.094 | [3] 0.159 | [4] -0.006 | pinometostat -0.053 | [5] -0.038 | [6] 0.014

NME6 (UniProt O75414)
inactive: IRAK-1-4 Inhibitor I 0.001 | ibrutinib 0.022 | [1] -0.035 | ralimetinib -0.087 | [2] -0.017 | [3] 0.026 | [4] 0.033 | pinometostat -0.06 | [5] 0.012 | [6] 0.086

NSF (UniProt P46459)
inactive: IRAK-1-4 Inhibitor I -0.011 | ibrutinib -0.004 | [1] 0.009 | ralimetinib -0.004 | [2] -0.079 | [3] -0.105 | [4] 0.047 | pinometostat 0.026 | [5] 0.004 | [6] 0.053

NIFK (UniProt Q9BYG3)
inactive: IRAK-1-4 Inhibitor I -0.044 | ibrutinib -0.007 | [1] 0.197 | ralimetinib 0.094 | [2] 0.051 | [3] 0.172 | [4] 0.097 | pinometostat 0.267 | [5] -0.141 | [6] -0.114

NOP16 (UniProt Q9Y3C1)
inactive: IRAK-1-4 Inhibitor I -0.229 | ibrutinib 0.104 | [1] 0.16 | ralimetinib 0.19 | [2] 0.122 | [3] 0.078 | [4] 0.138 | pinometostat 0.279 | [5] -0.007 | [6] -0.554

NHP2 (UniProt Q9NX24)
inactive: IRAK-1-4 Inhibitor I 0.115 | ibrutinib 0.051 | [1] 0.031 | ralimetinib 0.067 | [2] 0.058 | [3] 0.181 | [4] 0.085 | pinometostat 0.052 | [5] 0.021 | [6] 0.041

NIPSNAP1 (UniProt Q9BPW8)
inactive: IRAK-1-4 Inhibitor I -0.001 | ibrutinib 0.09 | [1] -0.072 | ralimetinib 0.004 | [2] 0.027 | [3] -0.001 | [4] -0.083 | pinometostat -0.023 | [5] -0.016 | [6] 0.019

NENF (UniProt Q9UMX5)
inactive: IRAK-1-4 Inhibitor I 0.071 | ibrutinib -0.012 | [1] 0.019 | ralimetinib -0.034 | [2] 0.003 | [3] 0.056 | [4] -0.01 | pinometostat -0.017 | [5] -0.019 | [6] 0.043

NIT2 (UniProt Q9NQR4)
inactive: IRAK-1-4 Inhibitor I 0.025 | ibrutinib 0.013 | [1] 0.032 | ralimetinib -0.068 | [2] 0 | [3] 0.02 | [4] 0.014 | pinometostat -0.034 | [5] -0.025 | [6] 0.021

2 records drawn at random from the list so far:
NHEJ1 (UniProt Q9H9Q4)
inactive: IRAK-1-4 Inhibitor I 0.043 | ibrutinib -0.064 | [1] -0.021 | ralimetinib 0.017 | [2] -0.016 | [3] 0.007 | [4] 0.014 | pinometostat 0.032 | [5] -0.001 | [6] 0.095

NME6 (UniProt O75414)
inactive: IRAK-1-4 Inhibitor I 0.001 | ibrutinib 0.022 | [1] -0.035 | ralimetinib -0.087 | [2] -0.017 | [3] 0.026 | [4] 0.033 | pinometostat -0.06 | [5] 0.012 | [6] 0.086

(continued)

NRGN (UniProt Q92686)
inactive: IRAK-1-4 Inhibitor I 0.151 | ibrutinib 0.079 | [1] 0.034 | ralimetinib 0.007 | [2] 0.053 | [3] 0.058 | [4] -0.199 | pinometostat 0.21

NFIC (UniProt P08651)
inactive: IRAK-1-4 Inhibitor I -0.02 | ibrutinib -0.003 | [1] -0.072 | ralimetinib 0.038 | [2] -0.036 | [3] 0.029 | [4] 0.031 | pinometostat 0.074 | [5] -0.01 | [6] 0.097

NFKB1 isoform 2 (UniProt P19838)
inactive: IRAK-1-4 Inhibitor I 0.011 | ibrutinib -0.123 | [1] -0.088 | ralimetinib 0.004 | [2] -0.086 | [3] -0.407 | [4] 0.092 | pinometostat 0.126 | [5] 0.085 | [6] 0.035

NSFL1C isoform 5 (UniProt Q9UNZ2)
inactive: IRAK-1-4 Inhibitor I 0 | ibrutinib -0.014 | [1] -0.009 | ralimetinib -0.031 | [2] -0.075 | [3] -0.014 | [4] 0.004 | pinometostat -0.062 | [5] -0.003 | [6] 0.007

NPLOC4 isoform 2 (UniProt Q8TAT6)
inactive: IRAK-1-4 Inhibitor I 0.04 | ibrutinib -0.01 | [1] -0.008 | ralimetinib -0.053 | [2] -0.028 | [3] 0.034 | [4] -0.063 | pinometostat -0.026 | [5] 0.003 | [6] 0.04

NR2F6 (UniProt P10588)
inactive: IRAK-1-4 Inhibitor I -0.067 | ibrutinib 0.004 | [1] 0.031 | ralimetinib -0.006 | [2] 0.013 | [3] 0.08 | [4] -0.122 | pinometostat 0 | [5] 0.053 | [6] -0.081

NOL12 (UniProt Q9UGY1)
inactive: IRAK-1-4 Inhibitor I -0.131 | ibrutinib 0.053 | [1] 0.236 | ralimetinib 0.135 | [2] 0.219 | [3] 0.146 | [4] 0.095 | pinometostat 0.21 | [5] -0.027 | [6] -0.55

NR2F2 (UniProt P24468)
inactive: IRAK-1-4 Inhibitor I -0.024 | ibrutinib -0.028 | [1] 0.045 | ralimetinib -0.098 | [2] -0.02 | [3] 0 | [4] 0.029 | pinometostat 0.027 | [5] -0.064 | [6] -0.015

NMI (UniProt Q13287)
inactive: IRAK-1-4 Inhibitor I 0.005 | ibrutinib 0.015 | [1] -0.023 | ralimetinib -0.063 | [2] -0.029 | [3] 0.028 | [4] 0.017 | pinometostat -0.001 | [5] -0.014 | [6] 0.012

NPL (UniProt Q9BXD5)
inactive: IRAK-1-4 Inhibitor I -0.089 | ibrutinib 0.041 | [1] -0.006 | ralimetinib 0.107 | [2] -0.013 | [3] 0.071 | [4] -0.129 | pinometostat 0.043 | [5] -0.038 | [6] -0.029

NFIA isoform 4 (UniProt Q12857)
inactive: IRAK-1-4 Inhibitor I -0.02 | ibrutinib 0.056 | [1] -0.033 | ralimetinib 0.02 | [2] 0.069 | [3] 0.034 | [4] 0.015 | pinometostat 0.041 | [5] 0.028 | [6] 0.007

NF1 (UniProt P21359)
inactive: IRAK-1-4 Inhibitor I 0.005 | ibrutinib -0.147 | [1] -0.163 | ralimetinib 0.066 | [2] 0.091 | [3] 0.039 | [4] -0.008 | pinometostat 0.066 | [5] 0.148 | [6] 0.126

NF2 (UniProt P35240)
inactive: IRAK-1-4 Inhibitor I 0.007 | ibrutinib 0 | [1] -0.12 | ralimetinib 0.029 | [2] -0.058 | [3] -0.047 | [4] -0.035 | pinometostat 0.032 | [5] -0.011 | [6] 0.059

NME2 isoform 2 (UniProt P22392)
inactive: IRAK-1-4 Inhibitor I 0.044 | ibrutinib 0.021 | [1] -0.011 | ralimetinib -0.053 | [2] 0.021 | [3] 0.069 | [4] -0.013 | pinometostat -0.032 | [5] 0.024 | [6] 0.023

NOMO1 (UniProt Q15155)
inactive: IRAK-1-4 Inhibitor I -0.046 | ibrutinib -0.107 | [1] 0.279 | ralimetinib 0.021 | [2] 0.054 | [3] -0.038 | [4] -0.016 | pinometostat 0.005 | [5] -0.002 | [6] 0.047

From the supplement of paper PMC10849652
